Experimental data taken from patent US7495021B2, “Benzothiazole- and benzooxazole-4,7-dione, derivatives and their use as cdc25 phosphate inhibitors” (Societe de Conseils de Recherches et d'Applications …, priority 2001, dated 2009).
pIC50: −log10 of the molar value. Some of these results come from one statement about several compounds together.

Legend:
MBP-Cdc25C protein = biological target: T1, MBP-Cdc25C protein (Homo sapiens, UniProt P30307); assay: Measurement of the phosphatase activity of the purified Cdc25C recombinant enzyme (OMFP dephosphorylation, fluorescence); format: biochemical; settings: read-out: CI50 on the phosphatase activity of the purified recombinant enzyme Cdc25-C
T1 construct: made in house
T1 sequence (P30307 1-473): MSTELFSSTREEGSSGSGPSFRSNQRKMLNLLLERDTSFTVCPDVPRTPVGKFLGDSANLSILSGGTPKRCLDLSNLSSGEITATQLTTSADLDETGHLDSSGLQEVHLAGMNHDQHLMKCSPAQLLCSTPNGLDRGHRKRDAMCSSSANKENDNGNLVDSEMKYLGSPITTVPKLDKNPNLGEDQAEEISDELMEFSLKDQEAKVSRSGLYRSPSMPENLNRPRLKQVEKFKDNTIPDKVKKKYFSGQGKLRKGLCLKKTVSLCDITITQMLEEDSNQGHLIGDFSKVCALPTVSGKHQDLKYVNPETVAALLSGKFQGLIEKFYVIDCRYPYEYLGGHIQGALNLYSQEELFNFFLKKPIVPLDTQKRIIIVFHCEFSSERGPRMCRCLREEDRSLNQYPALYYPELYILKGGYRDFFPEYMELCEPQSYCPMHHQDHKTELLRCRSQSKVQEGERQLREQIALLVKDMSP

[1] = test system: DU145 (human prostate cancer cells); assay: Antiproliferative activity, WST1 colorimetric test, DU145; format: cell-based; settings: read-out: Cl50 on the cell proliferation of the lines DU-145
Protocol: (§1) iii) Characterization of the Antiproliferative Activity:
(§2) By way of example, the effect of a treatment on two human cell lines Mia-Paca2 and DU145 by the compounds of the examples described previously will be studied. The cell lines DU145 (human prostate cancer cells) and Mia-PaCa2 (human pancreas cancer cells) were acquired from the American Tissue Culture Collection (Rockville, Md., USA). The cells placed in 80 μl of Dulbecco's Modified Eagle's medium (Gibco-Brl, Cergy-Pontoise, France) completed with 10% foetal calf serum inactivated by heating (Gibco-Brl, Cergy-Pontoise, France), 50,000 units/l of penicillin and 50 mg/l of streptomycin (Gibco-Brl, 10378-057, Cergy-Pontoise, France), and 2 mM of glutamine (Gibco-Brl, Cergy-Pontoise, France) were seeded on a 96-well plate on day 0. The cells were treated on day 1 for 96 hours with increasing concentrations of each of the compounds to be tested up to 10 μM. At the end of this period, quantification of cell proliferation is evaluated by a colorimetric test based on the cleavage of the tetrazolium salt WST1 by the mitochondrial dehydrogenases in viable cells leading to the formation of formazan (Boehringer Mannheim, Meylan, France). These tests are carried out in duplicate with 8 determinations per concentration tested. […]

[2] = test system: Mia-PaCa2 (human pancreas cancer cells); assay: Antiproliferative activity, WST1 colorimetric test, Mia-PaCa2; format: cell-based; settings: read-out: CI50 on the cell proliferation of the lines Mia-Paca2
Protocol: as §1, §2

Measured: pIC50

2-ethyl-5-[(4-pyrrolidin-1-ylbutyl)amino]-1,3-benzoxazole-4,7-dione or 2-ethyl-6-[(4-pyrrolidin-1-ylbutyl)amino]-1,3-benzoxazole-4,7-dione [Example 46]
≥ 5.00: all assays above
